In PubChem BioAssay AID1487 (National Center for Advancing Translational Sciences (NCATS), 2009):
Some of the results follow. Further columns of the screen follow, without active or inactive calls. The list favours compounds with an active or inconclusive main result. The note in brackets gives the kind of curve behind each potency; many fits are weak.

Test: qHTS Assay for Modulators of Lamin A Splicing
Details: HeLa LMNA splicing GFP/RFP minigene ratio, 48 h
Outline: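 Read-out is the ratio of GFP to DsRed2 object intensity, acquired by 488 nm laser-scanning cytometry on HeLa lamin A-EGFP minigene reporter cells. Compound incubation 48 hrs at 37 °C in Opti-MEM with 2% FBS; DMSO 0.5% final.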

[1] = measured here: RFP viability control channel
[2] = measured here: GFP splicing reporter channel

| Structure (SMILES) | AC50 [1] | AC50 [2] |
| --- | --- | --- |
| Cc1ccc(C(=O)NC(=S)NCC2CCCO2)cc1Br (configuration not stated) | 10 µM [rising, partial curve] |  |
| Cc1cccc(C)c1NC(=O)Cn1c(=O)n(CCCC(=O)NCc2ccco2)c(=O)c2sccc21 | 7.94 µM [rising, partial curve, poor fit] | 0.0224 µM [rising, full curve, poor fit] |
| Cc1cc(C)cc(NC(=O)C(=O)NCC(c2ccc3c(c2)OCO3)N2CCN(C)CC2)c1 (configuration not stated) | 6.31 µM [rising, single point] |  |
| O=C1CSC(c2ccc([N+](=O)[O-])cc2)N1CCN1CCCCC1 (configuration not stated) | 0.251 µM [falling, full curve, poor fit] | 0.891 µM [falling, partial curve] |
| O=C(COc1ccccc1)NCc1ccc2c(c1)CCN2C(=O)c1ccc(Cl)cc1 |  | 7.94 µM [rising, partial curve, poor fit] |
| CC(C)Cn1c(=O)n(C)c(=O)c2[nH]cnc21 |  | 5.62 µM [falling, partial curve, poor fit] |
| Cn1cccc1Cc1nnc(SCC(N)=O)n1CCc1ccccc1 | 11.2 µM [rising, partial curve, poor fit] |  |
| O=C(N/N=C/c1cn(-c2ccccc2)nc1-c1ccc(F)cc1)c1ccc(Br)o1 | 22.4 µM [rising, single point] | 4.47 µM [rising, partial curve, poor fit] |
| O=c1[nH]cnc2c1ncn2[C@@H]1O[C@H](CO)[C@@H](O)[C@H]1O |  | 0.0178 µM [falling, full curve, poor fit] |
| O=C(NCc1ccco1)c1ccc(Cn2c(SCc3ccc(F)cc3)nc3cccnc32)cc1 |  | 31.6 µM [falling, single point] |
| COc1cccc(/C=C/c2nc3c(cnn3-c3ccccc3)c(=O)[nH]2)c1 |  | 0.0282 µM [rising, full curve, poor fit] |
| COc1ccc(N2C(=O)[C@@H]3[C@H](C2=O)[C@H](C(=O)c2ccc(OC(C)=O)cc2)N2N=CC=C[C@@H]32)cc1 | 0.447 µM [rising, full curve, poor fit] |  |
| O=c1cc(-c2ccccc2)n2c(SCc3ccc(Cl)cc3)nnc2[nH]1 | 11.2 µM [rising, partial curve, poor fit] | 15.8 µM [rising, partial curve, poor fit] |
| CC(=O)c1cn(CC(=O)Nc2ccc(C)cc2)c2ccccc12 | 2.82 µM [rising, full curve] |  |
| CC1CCN(S(=O)(=O)c2ccc3c(c2)oc(=O)n3CC(=O)NCc2ccc3c(c2)OCO3)CC1 | 3.16 µM [rising, full curve] |  |
| CCOc1ccc(CN(C)CC(=O)NCc2ccccc2Cl)cc1 | 25.1 µM [rising, partial curve] |  |
| CCc1ccc(-c2nc(CN3CCC(C(=O)NCCc4ccc(OC)c(OC)c4)CC3)c(C)o2)cc1 | 12.6 µM [rising, partial curve] | 6.31 µM [rising, full curve, poor fit] |
| CC(C)N(C(=O)c1ccc2nc(-c3ccccc3)c(-c3ccccc3)nc2c1)C(C)C | 35.5 µM [rising, single point] |  |
| Cc1ccc(C=Nc2ccccc2C(N)=O)s1 | 3.55 µM [rising, full curve] |  |
| CC1CCC2C(=O)N(c3ccc(NC4CCCCC4)c([N+](=O)[O-])c3)C(=O)C2C1 (configuration not stated) | 31.6 µM [rising, single point] | 14.1 µM [rising, single point] |
| COc1cc2c(cc1OC)C(C(=O)NCc1ccco1)C1c3ccccc3CCN1C2=O (configuration not stated) |  | 0.02 µM [rising, full curve, poor fit] |
| CC(=O)Nc1cccc(C(=O)/C=C/c2ccc(C)cc2)c1 | 14.1 µM [falling, single point] | 35.5 µM [falling, single point] |
| COc1ccccc1C(=O)Nn1c(C2CCC2)nc2ccccc2c1=O | 25.1 µM [rising, single point] |  |
| CCCCOc1ccc(S(=O)(=O)NCc2csc(C)n2)cc1 | 12.6 µM [rising, partial curve] | 12.6 µM [rising, partial curve] |
| COC(=O)c1[nH]c(C)c(/C(O)=C2\C(=O)C(=O)N(CCN(C)C)C2c2ccccc2OC)c1C (configuration not stated) | 22.4 µM [rising, single point] |  |
| Nc1nc(N2CCN(C/C=C/c3ccccc3)CC2)nc2ccccc12 | 25.1 µM [rising, single point] |  |
| Cc1ccc(S(=O)(=O)Nc2ccccc2/C=N/c2nc3ccccc3n2C)cc1 | 0.0316 µM [rising, full curve] |  |

| Structure (SMILES) | AC50 [1] | AC50 [2] |
| --- | --- | --- |
| O=C(NC(=S)Nc1ccc2c(c1)OCCO2)c1ccc(F)cc1Cl | 25.1 µM [rising, single point] | 14.1 µM [rising, single point] |
| CCOC(=O)C1(Cc2ccccc2)CCN(C2Cc3ccccc3C2)CC1 | 15.8 µM [falling, partial curve] | 17.8 µM [falling, partial curve, poor fit] |
| COc1ccc(CNC(=O)C(=O)NCC2OCCN2S(=O)(=O)c2ccc3c(c2)OCCO3)cc1 (configuration not stated) | 15.8 µM [rising, single point] |  |
| Cc1ccccc1-c1nn2c(=O)cc(CN3CCN(C(=O)/C=C/c4ccccc4)CC3)nc2s1 | 11.2 µM [falling, partial curve] | 11.2 µM [falling, partial curve, poor fit] |
| Cc1cc(=O)n2c(ccc3ccccc32)c1C#N |  | 1.58 µM [rising, partial curve] |
| CC(C)(C)C(=O)NC(n1cnc2c(N3CCOCC3)ncnc21)C(Cl)(Cl)Cl (configuration not stated) |  | 15.8 µM [falling, single point] |
| CSCCC(NC(=O)c1ccc(Cl)cc1)C(=O)OCC(=O)Nc1cc(Cl)ccc1C#N (configuration not stated) |  | 35.5 µM [rising, single point] |
| Cc1cccc(N2C(N)=C(C#N)C(C#N)(C#N)C2c2ccccc2)c1 (configuration not stated) | 12.6 µM [rising, partial curve] | 12.6 µM [rising, partial curve, poor fit] |
| CCCOC(=O)NC(CC)COC(=O)Nc1cc(C)ccc1C (configuration not stated) | 35.5 µM [rising, single point] | 35.5 µM [rising, single point] |
| Cc1ccccc1NC1=C(Cl)C(=O)N(C2CCCCC2)C1=O | 35.5 µM [rising, single point] |  |
| Fc1cc(NCc2ccccc2)nc(NCc2ccccc2)n1 | 35.5 µM [rising, single point] | 31.6 µM [rising, single point] |
| CCOC(=O)c1ccc(CN(Cc2ccc(F)cc2)S(=O)(=O)c2ccc(F)c(C(=O)Nc3ccc(Cl)cc3F)c2)cc1 | 14.1 µM [rising, partial curve] | 6.31 µM [rising, partial curve, poor fit] |
| CCOc1ccc(NC(=O)c2c(NCc3cccnc3)sc3c2CCCC3)cc1 |  | 17.8 µM [falling, partial curve, poor fit] |
| O=C(Nc1ccc2c(c1)Cc1ccccc1-2)c1ccncc1 | 22.4 µM [rising, single point] |  |
| CCOC(=O)c1c(NC(=O)Cn2nc(C(=O)O)c3ccccc3c2=O)sc(CC)c1C | 0.282 µM [rising, full curve, poor fit] |  |
| COc1ccc(-c2nnc(SCC(=O)Nc3cccc(C(F)(F)F)c3)nc2-c2ccc(OC)cc2)cc1 | 11.2 µM [rising, partial curve, poor fit] | 14.1 µM [rising, single point] |
| COC(=O)c1cc2ccsc2n1CC(=O)Nc1cc(Cl)ccc1OC | 11.2 µM [rising, partial curve] |  |
| CN(CCCNC(=O)c1cc2c(Cl)nc3ccccc3c2s1)Cc1ccccc1 | 22.4 µM [falling, partial curve] | 14.1 µM [falling, partial curve, poor fit] |
| S=C(NCC1CCCO1)Nc1ccc(Cl)cc1 (configuration not stated) |  | 35.5 µM [rising, single point] |
| Cc1cc(C)c(NC(=O)Cn2cc(S(=O)(=O)Cc3ccccc3F)c3ccccc32)c(C)c1 | 4.47 µM [falling, full curve, poor fit] |  |
| CC(=O)Nc1ccc(-c2csc(NC(=O)CCCc3cccs3)n2)cc1 | 15.8 µM [rising, single point] | 11.2 µM [rising, partial curve] |
| Cc1ccc(C)n1CCN1CCN(C(=O)CSc2nc3ccccc3nc2N2CCOCC2)CC1 | 35.5 µM [falling, single point] |  |
| COc1ccccc1NC(=O)N(Cc1nnc2n1CCCCC2)c1ccc(F)cc1 | 10 µM [rising, partial curve, poor fit] |  |
| COc1ccc(/C=C2/SC(=S)N(CCC(=O)O)C2=O)cc1 |  | 31.6 µM [rising, single point] |
| Cn1c(=O)oc2cc(S(=O)(=O)Nc3cccc(F)c3)ccc21 | 35.5 µM [rising, single point] |  |
| O=C(N/N=C/c1c(O)ccc2ccccc12)c1[nH]ncc1Br | 12.6 µM [rising, partial curve] |  |
| C=CCOc1c(CNc2ccc(S(N)(=O)=O)cc2)cccc1OC | 20 µM [rising, single point] |  |

Part of the list above in another layout.
Structure (SMILES)	AC50 [1]	AC50 [2]
Cc1cc(=O)n2c(ccc3ccccc32)c1C#N		1.58 µM [rising, partial curve]
CC(C)(C)C(=O)NC(n1cnc2c(N3CCOCC3)ncnc21)C(Cl)(Cl)Cl (configuration not stated)		15.8 µM [falling, single point]
CSCCC(NC(=O)c1ccc(Cl)cc1)C(=O)OCC(=O)Nc1cc(Cl)ccc1C#N (configuration not stated)		35.5 µM [rising, single point]
Cc1cccc(N2C(N)=C(C#N)C(C#N)(C#N)C2c2ccccc2)c1 (configuration not stated)	12.6 µM [rising, partial curve]	12.6 µM [rising, partial curve, poor fit]
CCCOC(=O)NC(CC)COC(=O)Nc1cc(C)ccc1C (configuration not stated)	35.5 µM [rising, single point]	35.5 µM [rising, single point]
Cc1ccccc1NC1=C(Cl)C(=O)N(C2CCCCC2)C1=O	35.5 µM [rising, single point]	
Fc1cc(NCc2ccccc2)nc(NCc2ccccc2)n1	35.5 µM [rising, single point]	31.6 µM [rising, single point]
CCOC(=O)c1ccc(CN(Cc2ccc(F)cc2)S(=O)(=O)c2ccc(F)c(C(=O)Nc3ccc(Cl)cc3F)c2)cc1	14.1 µM [rising, partial curve]	6.31 µM [rising, partial curve, poor fit]
CCOc1ccc(NC(=O)c2c(NCc3cccnc3)sc3c2CCCC3)cc1		17.8 µM [falling, partial curve, poor fit]
O=C(Nc1ccc2c(c1)Cc1ccccc1-2)c1ccncc1	22.4 µM [rising, single point]	
